Results are given in words; binding and its absence hold for the method and conditions named. In cells and extracts the contact can be indirect. Some binding calls cover weakened binding; strength is not graded here. Sequences can lack the tags named with a protein.
Molecular target: T1, Syndecan-4 (SDC4), mouse, 3FLAG-tagged (mouse) (UniProt O35988)
T1 sequence: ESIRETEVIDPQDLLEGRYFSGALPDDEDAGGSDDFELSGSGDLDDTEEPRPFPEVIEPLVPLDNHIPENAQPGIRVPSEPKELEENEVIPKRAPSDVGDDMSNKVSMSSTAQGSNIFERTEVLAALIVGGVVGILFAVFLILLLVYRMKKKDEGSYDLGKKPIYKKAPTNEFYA
Assay: co-IP; beta-TC-6 cells lysed in RIPA lysis buffer (50 mM Tris-Base, 150 mM NaCl, 5 mM EDTA, 1% NP-40, 0.1% SDS, pH 7.4); lysate incubated with Anti-Flag Affinity Gel overnight at 4 °C; washed six times with RIPA; western blotting

B1: Midkine (MDK) (ligand, UniProt P12025 23-140)
chain: KKKEKVKKGSECSEWTWGPCTPSSKDCGMGFREGTCGAQTQRVHCKVPCNWKKEFGADCKYKFESWGACDGSTGTKARQGTLKKARYNAQCQETIRVTKPCTSKTKSKTKAKKGKGKD
binding: binds

Source: PMC12533153
